Measured values from patent US20030060472A1, “Novel substituted nitrocatechols, their use in the treatment of some central and peripheral nervous system disorders and pharmaceutical compositions containing them” (priority 2001, published 2003).
Some of these results come from one statement about several compounds together.

Tested on: Liver COMT
Assay: Ex vivo COMT activity in mice liver homogenates after administration by gastric tube
Conditions: for Time to maximal inhibitory effect on liver COMT: after oral administration; for Inhibition of liver COMT: oral administration

Compound | Time to maximal inhibitory effect on liver COMT [h] | Inhibition of liver COMT
Cl.N#CC1(c2ccccc2)CCN(CCC(=O)c2cc(O)c(O)c([N+](=O)[O-])c2)CC1 [Compound 15, 1-[3-(3,4-Dihydroxy-5-nitro-phenyl)-3-oxo-propyl]-4-phenyl-piperidine-4-carbonitrile hydrochloride] | ≤ 1 | potent inhibitors of liver COMT
CCN(CC)C(C)C(=O)c1cc(O)c(O)c([N+](=O)[O-])c1.Cl (stereo not shown) [Compound 7, 2-Diethylamino-1-(3,4-dihydroxy-5-nitro-phenyl)-propan-1-one hydrochloride] | ≤ 1 | potent inhibitors of liver COMT
